Assay [1] addresses topoisomerase IIα (human (endogenous in HME cells)) (UniProt P11388). The experiment in a line: co-IP; whole cell extracts of HME or induced Gem9 (geminin-overexpressing) cells; immunoprecipitated with anti-TopoIIα antibody, then immunoblotted.
Assay [2] addresses T1, geminin (human (endogenous in HME cells)) (UniProt O75496).
T1 sequence: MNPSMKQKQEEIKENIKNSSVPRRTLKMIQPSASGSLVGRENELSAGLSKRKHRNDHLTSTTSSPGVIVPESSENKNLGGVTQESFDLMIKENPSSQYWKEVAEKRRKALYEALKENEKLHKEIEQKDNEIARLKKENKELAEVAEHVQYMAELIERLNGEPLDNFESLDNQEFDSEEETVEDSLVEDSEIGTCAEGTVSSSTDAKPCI
The experiment in a line: co-IP; total cellular proteins of sonicated HME cells synchronised in G0/G1, S, G2/M and M/G1; immunoprecipitated with anti-Cdc7, anti-geminin, anti-Sp1 (negative control) or anti-TopoIIα antibodies, then immunoblotted. A general note: Immunoblotting shows a protein as a band on a membrane.

Amino acid sequences for entries named in this document (tags omitted). A change or cut given only in a name is not applied to a line headed by its entry.
UniProt P11388: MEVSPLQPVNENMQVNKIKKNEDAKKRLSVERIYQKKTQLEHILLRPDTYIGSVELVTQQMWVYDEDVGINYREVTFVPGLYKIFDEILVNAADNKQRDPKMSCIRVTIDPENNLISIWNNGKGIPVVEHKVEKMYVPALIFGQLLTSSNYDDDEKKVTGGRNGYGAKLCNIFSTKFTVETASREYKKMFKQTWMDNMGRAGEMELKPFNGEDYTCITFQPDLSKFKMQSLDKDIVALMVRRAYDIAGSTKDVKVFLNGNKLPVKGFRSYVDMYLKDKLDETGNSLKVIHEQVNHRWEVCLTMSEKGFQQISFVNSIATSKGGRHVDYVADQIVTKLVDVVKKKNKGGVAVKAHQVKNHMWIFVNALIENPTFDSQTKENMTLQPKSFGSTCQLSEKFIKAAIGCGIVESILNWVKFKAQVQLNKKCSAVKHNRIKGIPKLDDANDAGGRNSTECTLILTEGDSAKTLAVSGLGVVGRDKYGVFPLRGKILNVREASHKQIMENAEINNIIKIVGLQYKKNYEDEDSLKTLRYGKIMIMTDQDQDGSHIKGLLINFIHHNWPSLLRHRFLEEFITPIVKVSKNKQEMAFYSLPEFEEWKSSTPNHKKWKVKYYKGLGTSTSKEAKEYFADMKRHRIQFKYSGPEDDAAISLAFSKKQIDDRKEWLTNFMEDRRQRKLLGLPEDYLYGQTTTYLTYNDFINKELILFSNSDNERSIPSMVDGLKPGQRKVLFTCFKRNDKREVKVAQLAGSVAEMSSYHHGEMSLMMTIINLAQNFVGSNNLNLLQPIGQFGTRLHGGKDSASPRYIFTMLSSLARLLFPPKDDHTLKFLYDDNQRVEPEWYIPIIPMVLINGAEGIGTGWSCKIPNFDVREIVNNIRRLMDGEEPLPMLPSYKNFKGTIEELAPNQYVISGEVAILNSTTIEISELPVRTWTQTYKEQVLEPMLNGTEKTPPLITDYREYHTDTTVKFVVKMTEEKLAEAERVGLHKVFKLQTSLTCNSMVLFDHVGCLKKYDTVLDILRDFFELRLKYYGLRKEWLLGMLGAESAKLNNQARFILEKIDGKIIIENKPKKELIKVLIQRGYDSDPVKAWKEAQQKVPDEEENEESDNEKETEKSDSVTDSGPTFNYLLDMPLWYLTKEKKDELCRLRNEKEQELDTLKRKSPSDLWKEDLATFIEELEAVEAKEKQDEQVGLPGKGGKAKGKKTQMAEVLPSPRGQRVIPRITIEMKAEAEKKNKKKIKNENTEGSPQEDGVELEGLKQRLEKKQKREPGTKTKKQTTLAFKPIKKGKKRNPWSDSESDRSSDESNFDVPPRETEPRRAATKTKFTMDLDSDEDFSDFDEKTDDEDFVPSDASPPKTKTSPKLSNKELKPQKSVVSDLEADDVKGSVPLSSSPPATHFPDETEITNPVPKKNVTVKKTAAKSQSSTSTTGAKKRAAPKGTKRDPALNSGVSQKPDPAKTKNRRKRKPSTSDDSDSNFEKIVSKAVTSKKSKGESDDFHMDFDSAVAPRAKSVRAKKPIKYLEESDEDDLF
UniProt P49792: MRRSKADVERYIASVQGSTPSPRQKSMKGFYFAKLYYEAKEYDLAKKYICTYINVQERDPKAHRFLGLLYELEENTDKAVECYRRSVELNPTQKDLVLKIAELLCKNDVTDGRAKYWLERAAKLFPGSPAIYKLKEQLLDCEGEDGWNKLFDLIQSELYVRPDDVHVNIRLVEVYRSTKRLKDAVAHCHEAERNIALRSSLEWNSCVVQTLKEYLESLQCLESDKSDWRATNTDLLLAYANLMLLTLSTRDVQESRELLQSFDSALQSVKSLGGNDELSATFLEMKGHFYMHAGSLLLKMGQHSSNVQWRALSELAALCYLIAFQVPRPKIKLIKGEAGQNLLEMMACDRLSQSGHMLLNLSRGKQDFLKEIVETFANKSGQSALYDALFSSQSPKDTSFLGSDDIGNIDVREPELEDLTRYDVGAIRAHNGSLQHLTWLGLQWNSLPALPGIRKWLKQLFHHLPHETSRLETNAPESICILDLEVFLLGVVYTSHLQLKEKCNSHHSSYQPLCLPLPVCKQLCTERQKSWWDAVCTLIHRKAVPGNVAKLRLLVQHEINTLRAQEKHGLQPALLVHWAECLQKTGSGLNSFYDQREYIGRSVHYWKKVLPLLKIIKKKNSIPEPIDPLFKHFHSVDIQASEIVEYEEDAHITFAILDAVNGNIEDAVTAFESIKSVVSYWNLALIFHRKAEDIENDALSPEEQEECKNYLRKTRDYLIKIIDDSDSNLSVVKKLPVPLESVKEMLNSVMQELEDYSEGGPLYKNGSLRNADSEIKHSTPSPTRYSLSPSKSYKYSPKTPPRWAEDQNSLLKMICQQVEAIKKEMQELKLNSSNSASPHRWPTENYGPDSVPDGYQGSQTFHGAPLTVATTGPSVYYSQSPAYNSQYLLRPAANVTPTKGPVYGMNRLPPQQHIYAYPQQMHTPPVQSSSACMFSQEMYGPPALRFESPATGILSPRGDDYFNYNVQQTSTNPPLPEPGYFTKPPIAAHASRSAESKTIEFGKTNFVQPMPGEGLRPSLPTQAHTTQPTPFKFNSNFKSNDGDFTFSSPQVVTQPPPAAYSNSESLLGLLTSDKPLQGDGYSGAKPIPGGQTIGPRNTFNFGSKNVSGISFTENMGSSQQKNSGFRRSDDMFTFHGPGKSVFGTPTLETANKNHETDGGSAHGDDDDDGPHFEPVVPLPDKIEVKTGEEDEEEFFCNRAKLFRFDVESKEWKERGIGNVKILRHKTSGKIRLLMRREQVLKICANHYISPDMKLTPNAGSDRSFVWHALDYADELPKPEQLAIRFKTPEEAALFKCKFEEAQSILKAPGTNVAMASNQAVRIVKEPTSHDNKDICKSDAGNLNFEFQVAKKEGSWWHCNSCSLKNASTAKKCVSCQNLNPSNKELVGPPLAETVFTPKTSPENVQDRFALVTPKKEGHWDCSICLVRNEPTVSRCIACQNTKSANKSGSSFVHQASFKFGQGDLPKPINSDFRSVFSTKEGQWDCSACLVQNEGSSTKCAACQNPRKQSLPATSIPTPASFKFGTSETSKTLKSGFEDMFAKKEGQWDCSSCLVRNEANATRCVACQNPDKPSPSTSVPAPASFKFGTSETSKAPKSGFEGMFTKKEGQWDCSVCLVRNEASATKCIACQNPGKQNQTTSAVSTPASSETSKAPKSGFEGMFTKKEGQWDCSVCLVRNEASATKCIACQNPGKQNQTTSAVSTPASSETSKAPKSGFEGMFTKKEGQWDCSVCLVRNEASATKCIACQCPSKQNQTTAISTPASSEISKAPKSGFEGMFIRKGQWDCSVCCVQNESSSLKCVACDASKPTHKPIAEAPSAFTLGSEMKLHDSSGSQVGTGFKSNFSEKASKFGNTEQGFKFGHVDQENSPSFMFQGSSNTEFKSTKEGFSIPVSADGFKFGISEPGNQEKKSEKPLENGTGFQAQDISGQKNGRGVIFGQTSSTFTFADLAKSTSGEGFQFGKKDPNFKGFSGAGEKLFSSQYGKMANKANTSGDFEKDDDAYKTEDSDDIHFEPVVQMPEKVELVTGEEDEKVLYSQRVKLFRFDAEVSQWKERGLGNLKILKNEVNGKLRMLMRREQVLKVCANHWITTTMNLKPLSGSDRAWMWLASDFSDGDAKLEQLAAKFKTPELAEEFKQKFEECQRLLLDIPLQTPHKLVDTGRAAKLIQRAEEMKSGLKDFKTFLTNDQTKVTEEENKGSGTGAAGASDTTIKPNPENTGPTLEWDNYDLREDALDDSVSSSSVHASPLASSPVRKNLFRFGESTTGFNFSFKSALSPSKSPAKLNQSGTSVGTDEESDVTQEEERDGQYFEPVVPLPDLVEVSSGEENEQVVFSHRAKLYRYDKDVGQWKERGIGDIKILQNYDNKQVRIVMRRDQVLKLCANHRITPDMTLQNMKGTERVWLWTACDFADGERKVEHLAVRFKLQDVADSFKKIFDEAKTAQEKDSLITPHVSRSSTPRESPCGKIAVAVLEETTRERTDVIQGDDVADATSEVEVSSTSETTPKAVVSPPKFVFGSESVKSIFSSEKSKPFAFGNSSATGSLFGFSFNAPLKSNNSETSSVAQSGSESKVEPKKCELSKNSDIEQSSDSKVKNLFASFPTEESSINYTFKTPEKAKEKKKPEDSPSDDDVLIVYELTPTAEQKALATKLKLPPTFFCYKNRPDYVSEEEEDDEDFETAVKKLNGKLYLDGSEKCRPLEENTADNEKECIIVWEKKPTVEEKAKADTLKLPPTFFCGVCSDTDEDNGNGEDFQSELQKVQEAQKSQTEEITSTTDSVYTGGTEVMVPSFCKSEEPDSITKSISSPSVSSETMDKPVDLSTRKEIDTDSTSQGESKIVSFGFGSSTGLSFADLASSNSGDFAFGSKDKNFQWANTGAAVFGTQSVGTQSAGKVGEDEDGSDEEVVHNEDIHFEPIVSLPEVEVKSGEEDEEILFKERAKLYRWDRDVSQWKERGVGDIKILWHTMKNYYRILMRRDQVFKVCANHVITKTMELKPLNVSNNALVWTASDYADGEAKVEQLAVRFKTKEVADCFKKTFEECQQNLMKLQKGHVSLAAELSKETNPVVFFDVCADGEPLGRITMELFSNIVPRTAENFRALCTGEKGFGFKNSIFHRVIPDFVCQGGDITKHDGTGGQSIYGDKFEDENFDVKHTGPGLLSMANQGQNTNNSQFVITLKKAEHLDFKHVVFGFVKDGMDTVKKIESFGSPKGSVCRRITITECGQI
UniProt P08047: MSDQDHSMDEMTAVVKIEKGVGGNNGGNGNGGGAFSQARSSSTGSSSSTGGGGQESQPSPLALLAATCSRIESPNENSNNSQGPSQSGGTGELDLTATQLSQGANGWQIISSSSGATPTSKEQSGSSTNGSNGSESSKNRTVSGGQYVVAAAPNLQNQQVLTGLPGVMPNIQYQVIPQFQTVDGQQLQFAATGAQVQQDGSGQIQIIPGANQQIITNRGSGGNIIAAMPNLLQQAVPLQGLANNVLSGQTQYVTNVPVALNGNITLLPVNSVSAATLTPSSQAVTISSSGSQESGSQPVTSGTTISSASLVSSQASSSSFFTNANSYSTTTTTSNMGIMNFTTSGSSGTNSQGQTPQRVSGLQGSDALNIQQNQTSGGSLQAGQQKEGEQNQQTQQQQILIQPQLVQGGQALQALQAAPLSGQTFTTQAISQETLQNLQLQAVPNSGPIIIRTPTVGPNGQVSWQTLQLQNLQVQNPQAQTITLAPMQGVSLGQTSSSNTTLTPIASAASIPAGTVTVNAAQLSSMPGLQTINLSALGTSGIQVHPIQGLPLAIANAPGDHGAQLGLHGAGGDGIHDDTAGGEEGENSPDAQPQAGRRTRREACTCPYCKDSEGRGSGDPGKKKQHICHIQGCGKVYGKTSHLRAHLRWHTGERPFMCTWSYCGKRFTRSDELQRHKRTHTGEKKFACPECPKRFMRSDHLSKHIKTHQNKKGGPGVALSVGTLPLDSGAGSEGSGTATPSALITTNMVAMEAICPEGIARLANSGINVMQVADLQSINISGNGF
UniProt O00311: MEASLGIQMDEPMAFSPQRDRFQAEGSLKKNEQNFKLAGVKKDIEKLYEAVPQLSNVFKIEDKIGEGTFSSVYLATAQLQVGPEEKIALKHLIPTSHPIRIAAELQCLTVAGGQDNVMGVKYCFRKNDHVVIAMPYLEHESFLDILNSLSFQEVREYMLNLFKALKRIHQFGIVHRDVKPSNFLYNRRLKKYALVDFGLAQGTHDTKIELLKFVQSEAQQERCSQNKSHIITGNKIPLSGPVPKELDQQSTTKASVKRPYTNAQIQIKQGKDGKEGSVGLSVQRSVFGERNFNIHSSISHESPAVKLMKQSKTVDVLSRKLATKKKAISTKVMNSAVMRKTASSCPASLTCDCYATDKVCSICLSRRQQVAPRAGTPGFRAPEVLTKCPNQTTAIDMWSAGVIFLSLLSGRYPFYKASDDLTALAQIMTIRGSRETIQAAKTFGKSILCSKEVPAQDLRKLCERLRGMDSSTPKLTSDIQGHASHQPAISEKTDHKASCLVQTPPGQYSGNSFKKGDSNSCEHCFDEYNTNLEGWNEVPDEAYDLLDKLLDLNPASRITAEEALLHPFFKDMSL

For assay [3], the target named is topoisomerase IIα (human (endogenous in HME cells)) (UniProt P11388). The assay is described as above.

No constants are given. Whether binding was seen depends on the method and setting. In cells and extracts the contact can be indirect. Some results given as binding are weak or reduced against the parent protein; the word gives no strength.

As for “RAN binding protein 2/ubiquitin-conjugating enzyme 9 complex (from UniProt P49792 1-3224; P63279 1-158)”, the binding entry in assay [1] is recorded as “binds”.

Regarding Sp1 (from UniProt P08047 1-785), the binding result in assay [2] and in assay [3] was “no binding” each time.

Regarding “cell division cycle 7 (from UniProt O00311 1-574) (enzyme)”, the binding entry in assay [2] is “no binding”.

The values are drawn from article PMC3218940.
